Assay [1] concerns the target T1, GFP-LRMDA (human), A0A087.
T1 chain: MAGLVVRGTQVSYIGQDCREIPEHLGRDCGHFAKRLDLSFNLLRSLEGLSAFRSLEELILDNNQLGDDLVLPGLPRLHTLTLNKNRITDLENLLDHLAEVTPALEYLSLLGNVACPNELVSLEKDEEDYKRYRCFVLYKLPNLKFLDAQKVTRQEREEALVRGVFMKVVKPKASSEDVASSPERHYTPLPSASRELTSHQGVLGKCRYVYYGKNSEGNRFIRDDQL
Nature of the assay: affinity purification with mass spectrometry; GFP-trap from lysates of stably transduced RPE1 cells; TMT proteomics; GFP-LRMDA against GFP, mutants against wild-type GFP-LRMDA. The conditions noted are these: remark: other sources report otherwise.

For assay [2], the target named is T1, GFP-LRMDA (human), A0A087. Nature of the assay: affinity purification with mass spectrometry; GFP-trap from lysates of stably transduced MNT1 cells (GFP-LRMDA or GFP-VPS26C against GFP); TMT proteomics. The conditions noted are these: remark: other sources report otherwise.
The target in assay [3] is T2, GFP-LRMDA (human).
T2 sequence: T1 chain
Described as above.

The target of another assay is T3, GFP-LRMDA F145D (human).
T3 sequence: T1 chain with F145D
Nature of the assay: affinity purification with mass spectrometry; GFP-trap from lysates of stably transduced RPE1 cells; TMT proteomics; GFP-LRMDA against GFP, mutants against wild-type GFP-LRMDA.

For assay [4], the target named is T2, GFP-LRMDA (human). The description is as above.
The target of the next assay is T4, GFP-LRMDA(L226G) (human).
T4 sequence: T1 chain with L226G
Described as above.

For 2 molecules, binding results are on record in article doi:10.1101/2025.02.04.636395, “Identification of a RAB32-LRMDA-Commander membrane trafficking complex reveals the molecular mechanism of human oculocutaneous albinism type 7” (bioRxiv, 2025).

Where a chain is given by its changes, count along the chain named. No constants are given. Whether binding was seen depends on the method and setting. In cells and extracts the contact can be indirect. A yes stands for co-enrichment or nearness to the bait. Other partners may have been found. For part of these data: No binding means not detected with the bait. Tags and fused reporters may be left off the sequences shown.

B1: RAB38 (endogenous), P57729 1-211 (protein)
chain: MQAPHKEHLYKLLVIGDLGVGKTSIIKRYVHQNFSSHYRATIGVDFALKVLHWDPETVVRLQLWDIAGQERFGNMTRVYYREAMGAFIVFDVTRPATFEAVAKWKNDLDSKLSLPNGKPVSVVLLANKCDQGKDVLMNNGLKMDQFCKEHGFVGWFETSAKENINIDEASRCLVKHILANECDLMESIEPDVVKPHLTSTKVASCSGCAKS
As for B1, the binding result in assay [1] and in assay [2] was “no binding” throughout.

B2: recombinant RAB32 (natural protein, human, UniProt Q13637 1-225, looked up)
chain: MAGGGAGDPGLGAAAAPAPETREHLFKVLVIGELGVGKTSIIKRYVHQLFSQHYRATIGVDFALKVLNWDSRTLVRLQLWDIAGQERFGNMTRVYYKEAVGAFVVFDISRSSTFEAVLKWKSDLDSKVHLPNGSPIPAVLLANKCDQNKDSSQSPSQVDQFCKEHGFAGWFETSAKDNINIEEAARFLVEKILVNHQSFPNEENDVDKIKLDQETLRAENKSQCC
notes: RAB32, human; synthetic gene codon-optimised for S. frugiperda; also called tag-less RAB32; purified RAB32; source: Sf21 insect cells (baculovirus), purified (Glutathione Sepharose, TEV cleavage); not shown: GST, N-terminal, cleaved
B2: the binding result with GFP-LRMDA (human) [3] is “binds”; with GFP-LRMDA F145D (human), “no binding”; with GFP-LRMDA (human) [4] it was “binds”; in the assay with GFP-LRMDA(L226G) (human) it was “binds”.
